PubChem BioAssay AID1259254, NCATS | 2017

- Screen: 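Gene knock-downs that lead to re-replication, shown by excess G2 DNA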 (primary screen)
- System: human HCT116 colorectal cancer cells
- Reagents: single siRNA against human genes
- Duration: 3 days
- Detection: 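Imaged Hoechst DNA stain sorts each cell into a cycle phase by DNA amount; per plate, G2 fraction set to 0% for non-targeting and 100% for GMNN siRNA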
- Direction: G2 robust z-score: higher = more G2 cells, more excess DNA replication
- Active means: 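An siRNA counts as active if its G2 robust z-score lies at least 5 MADs above the screen median; here such calls match roughly 38% of GMNN control or more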
In all, the deposit lists about 59,000 reagents; below is a random part of them. About 1,550 of them (2.6%) count as active. 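G2 share is only a proxy for re-replication; each gene was hit by three separate siRNAs, and active genes were retested.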 The numbers tell different reagents against one gene apart. Further read-outs or replicates are left out here. The record does not give: the amount of reagent.

Depletion of CALCRL (calcitonin receptor like receptor) #1 resulted in: G2 robust z-score -0.648; inactive.
CALCRL (calcitonin receptor like receptor) #2 gave G2 robust z-score -0.101; inactive.
For CALCRL (calcitonin receptor like receptor) #3 the deposit lists G2 robust z-score 6.02; active.
Knock-down of TDRD3 (tudor domain containing 3) #1 gave: G2 robust z-score 0.0977; inactive.
After knock-down of TDRD3 (tudor domain containing 3) #2, the screen gave G2 robust z-score 1.99; inactive.
Against TDRD3 (tudor domain containing 3) #3, the values are G2 robust z-score 0.223; inactive.
Depletion of ITGB4 (integrin subunit beta 4) #1 gave: G2 robust z-score -1.19; inactive.
ITGB4 (integrin subunit beta 4) #2 showed G2 robust z-score 0.459; inactive.
ITGB4 (integrin subunit beta 4) #3 scored G2 robust z-score -0.125; inactive.
PHAX (phosphorylated adaptor for RNA export) #1 scored G2 robust z-score -0.972; inactive.
PHAX (phosphorylated adaptor for RNA export) #2 gave G2 robust z-score 0.595; inactive.
Silencing of PHAX (phosphorylated adaptor for RNA export) #3 gave: G2 robust z-score -1.19; inactive.
Depletion of PBRM1 (polybromo 1) #1 resulted in: G2 robust z-score 0.262; inactive.
For PBRM1 (polybromo 1) #2, the values are G2 robust z-score -0.603; inactive.
With knock-down of PBRM1 (polybromo 1) #3, the record shows G2 robust z-score -0.956; inactive.
Knock-down of OR10A6 #1 resulted in: G2 robust z-score 0.981; inactive.
After knock-down of OR10A6 #2 the results were G2 robust z-score -0.562; inactive.
Silencing of OR10A6 #3 gave: G2 robust z-score -1.4; inactive.
With knock-down of ADCK5 (aarF domain containing kinase 5) #1 the results were G2 robust z-score -0.593; inactive.
With knock-down of ADCK5 (aarF domain containing kinase 5) #2 the results were G2 robust z-score 0.571; inactive.
With knock-down of ADCK5 (aarF domain containing kinase 5) #3 the results were G2 robust z-score -0.683; inactive.
After knock-down of BTBD19 (BTB domain containing 19) #1, the screen gave G2 robust z-score -0.748; inactive.
After knock-down of BTBD19 (BTB domain containing 19) #2, the record shows G2 robust z-score -0.0364; inactive.
After knock-down of BTBD19 (BTB domain containing 19) #3, the screen gave G2 robust z-score 0.426; inactive.

Not a retest: an excerpt of the list.
ADCK5 (aarF domain containing kinase 5) #2 | G2 robust z-score: 0.571; activity call: inactive
ADCK5 (aarF domain containing kinase 5) #3 | G2 robust z-score: -0.683; activity call: inactive
